# Data reported in the supplement of paper PMC8728848.
# This is one part of the list.
# B1: SAOUHSC 02783 (Staphylococcus aureus), Q5HD69 (protein)
# chain: MIHSKKLTLGICLVLLIILIVGYVIMTKTNGRNAQIKDTFNQTLKLYPTKNLDDFYDKEGFRDQEFKKGDKGTWIVNSEMVIEPKGKDMETRGMVLYINRNTRTTKGYYFISEMTDDSNGRPKDDEKRYPVKMEHNKIIPTKPLPNDKLKKEIENFKFFVQYGNFKDINDYKDGDISYNPNVPSYSAKYQLNNDDYNVQQLRKRYDIPTKQAPKLLLKGDGDLKGSSVGSRSLEFTFVENKEENIYFTDSVQYTPSEDTRYESN
# Assays:
# Assay in all cases: glycan array binding signal (z-score within array); higher = stronger binding
# Conditions in all cases: glycan notation: IUPAC condensed, linker removed
# [1] = biological target: Fuc(a1-2)[GalNAc(a1-3)]Gal(b1-3)GlcNAc(b1-6)GalNAc
# Procedure, shortened: (§1)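 The binding signal is a Z-score computed within each array and averaged over linkers. Arrays of the same protein sequence at different concentrations or buffers were also averaged together. Data originate from 3228 arrays in the Consortium for Functional Glycomics database, kept only where the protein sequence was available.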
# [2] = biological target: Fuc(a1-2)[GalNAc(a1-3)]Gal(b1-4)Glc
# Procedure, shortened: as §1
# [3] = biological target: Fuc(a1-2)[GalNAc(a1-3)]Gal(b1-4)GlcNAc
# Procedure, shortened: as §1
# [4] = biological target: Fuc(a1-2)[GalNAc(a1-3)]Gal(b1-4)GlcNAc(b1-2)Man
# Procedure, shortened: as §1
# [5] = biological target: Fuc(a1-2)[GalNAc(a1-3)]Gal(b1-4)GlcNAc(b1-2)Man(a1-3)[Fuc(a1-2)[GalNAc(a1-3)]Gal(b1-4)GlcNAc(b1-2)Man(a1-6)]Man(b1-4)GlcNAc(b1-4)GlcNAc
# Procedure, shortened: as §1
# [6] = biological target: Fuc(a1-2)[GalNAc(a1-3)]Gal(b1-4)GlcNAc(b1-2)Man(a1-3)[Fuc(a1-2)[GalNAc(a1-3)]Gal(b1-4)GlcNAc(b1-2)Man(a1-6)]Man(b1-4)GlcNAc(b1-4)[Fuc(a1-6)]GlcNAc
# Procedure, shortened: as §1
# [7] = biological target: Fuc(a1-2)[GalNAc(a1-3)]Gal(b1-4)GlcNAc(b1-3)Gal(b1-4)GlcNAc
# Procedure, shortened: as §1
# [8] = biological target: Fuc(a1-2)[GalNAc(a1-3)]Gal(b1-4)GlcNAc(b1-3)Gal(b1-4)GlcNAc(b1-3)Gal(b1-4)GlcNAc
# Procedure, shortened: as §1
# [9] = biological target: Fuc(a1-2)[GalNAc(a1-3)]Gal(b1-4)GlcNAc(b1-3)GalNAc
# Procedure, shortened: as §1
# [10] = biological target: Fuc(a1-2)[GalNAc(a1-3)]Gal(b1-4)GlcNAc(b1-3)[Fuc(a1-2)[GalNAc(a1-3)]Gal(b1-4)GlcNAc(b1-6)]GalNAc
# Procedure, shortened: as §1
# [11] = biological target: Fuc(a1-2)[GalNAc(a1-3)]Gal(b1-4)GlcNAc(b1-6)GalNAc
# Procedure, shortened: as §1
# [12] = biological target: Fuc(a1-2)[GalNAc(a1-3)]Gal(b1-4)[Fuc(a1-3)]GlcNAc
# Procedure, shortened: as §1
# [13] = biological target: Fuc(a1-2)[GalNAc(a1-3)]Gal(b1-4)[Fuc(a1-3)]GlcNAc(b1-3)GalNAc
# Procedure, shortened: as §1
# [14] = biological target: Fuc(a1-2)[GalNAc(a1-4)]Gal(b1-4)GlcNAc
# Procedure, shortened: as §1
# [15] = biological target: Fuc(a1-2)[GalNAc(b1-3)]Gal
# Procedure, shortened: as §1
# [16] = biological target: Fuc(a1-3)GlcNAc
# Procedure, shortened: as §1
# [17] = biological target: Fuc(a1-3)[Gal(b1-4)]Glc6S
# Procedure, shortened: as §1
# [18] = biological target: Fuc(a1-3)[Gal(b1-4)]GlcNAc
# Procedure, shortened: as §1
# [19] = biological target: Fuc(a1-3)[Gal(b1-4)]GlcNAc(b1-2)Man
# Procedure, shortened: as §1
# [20] = biological target: Fuc(a1-3)[Gal(b1-4)]GlcNAc(b1-2)Man(a1-3)[Fuc(a1-3)[Gal(b1-4)]GlcNAc(b1-2)Man(a1-6)]Man(b1-4)GlcNAc(b1-4)GlcNAc
# Procedure, shortened: as §1
# [21] = biological target: Fuc(a1-3)[Gal(b1-4)]GlcNAc(b1-2)Man(a1-3)[Fuc(a1-3)[Gal(b1-4)]GlcNAc(b1-2)Man(a1-6)]Man(b1-4)GlcNAc(b1-4)[Fuc(a1-6)]GlcNAc
# Procedure, shortened: as §1
# [22] = biological target: Fuc(a1-3)[Gal(b1-4)]GlcNAc(b1-3)Gal(b1-3)[Fuc(a1-4)]GlcNAc
# Procedure, shortened: as §1
# [23] = biological target: Fuc(a1-3)[Gal(b1-4)]GlcNAc(b1-3)Gal(b1-4)[Fuc(a1-3)]GlcNAc
# Procedure, shortened: as §1
# [24] = biological target: Fuc(a1-3)[Gal(b1-4)]GlcNAc(b1-3)Gal(b1-4)[Fuc(a1-3)]GlcNAc(b1-3)Gal(b1-4)[Fuc(a1-3)]GlcNAc
# Procedure, shortened: as §1
# [25] = biological target: Fuc(a1-3)[Gal(b1-4)]GlcNAc(b1-3)GalNAc
# Procedure, shortened: as §1
# [26] = biological target: Fuc(a1-3)[Gal(b1-4)]GlcNAc(b1-6)GalNAc
# Procedure, shortened: as §1
# [27] = biological target: Fuc(a1-3)[Gal(b1-4)]GlcNAc(b1-6)[Gal(b1-3)GlcNAc(b1-3)]Gal(b1-4)Glc
# Procedure, shortened: as §1
# [28] = biological target: Fuc(a1-3)[Gal(b1-4)]GlcNAc6S
# Procedure, shortened: as §1
# [29] = biological target: Fuc(a1-3)[Gal3S(b1-4)]Glc
# Procedure, shortened: as §1
# [30] = biological target: Fuc(a1-3)[Gal3S(b1-4)]GlcNAc
# Procedure, shortened: as §1
# [31] = biological target: Fuc(a1-3)[Gal3S(b1-4)]GlcNAc6S
# Procedure, shortened: as §1
# [32] = biological target: Fuc(a1-3)[GalNAc(b1-4)]GlcNAc
# Procedure, shortened: as §1
# [33] = biological target: Fuc(a1-3)[GalNAc(b1-4)]GlcNAc6S
# Procedure, shortened: as §1
# [34] = biological target: Fuc(a1-4)GlcNAc
# Procedure, shortened: as §1
# [35] = biological target: Fuc(b1-3)GlcNAc
# Procedure, shortened: as §1
# [36] = biological target: Gal(a1-2)Gal
# Procedure, shortened: as §1
# [37] = biological target: Gal(a1-3)Gal
# Procedure, shortened: as §1
binder,measurement,setting,value
B1,glycan array binding signal (z-score),[1],0.779
same,glycan array binding signal (z-score),[2],-0.079
same,glycan array binding signal (z-score),[3],-0.774
same,glycan array binding signal (z-score),[4],-0.646
same,glycan array binding signal (z-score),[5],1.05
same,glycan array binding signal (z-score),[6],-0.573
same,glycan array binding signal (z-score),[7],-0.188
same,glycan array binding signal (z-score),[8],-0.515
same,glycan array binding signal (z-score),[9],0.249
same,glycan array binding signal (z-score),[10],-0.505
same,glycan array binding signal (z-score),[11],-0.494
same,glycan array binding signal (z-score),[12],0.512
same,glycan array binding signal (z-score),[13],-0.705
same,glycan array binding signal (z-score),[14],-1.89
same,glycan array binding signal (z-score),[15],1.08
same,glycan array binding signal (z-score),[16],-0.539
same,glycan array binding signal (z-score),[17],0.322
same,glycan array binding signal (z-score),[18],0.559
same,glycan array binding signal (z-score),[19],-0.356
same,glycan array binding signal (z-score),[20],-0.433
same,glycan array binding signal (z-score),[21],-0.178
same,glycan array binding signal (z-score),[22],-0.044
same,glycan array binding signal (z-score),[23],0.501
same,glycan array binding signal (z-score),[24],-0.194
same,glycan array binding signal (z-score),[25],0.323
same,glycan array binding signal (z-score),[26],0.076
same,glycan array binding signal (z-score),[27],-0.341
same,glycan array binding signal (z-score),[28],0.426
same,glycan array binding signal (z-score),[29],-0.836
same,glycan array binding signal (z-score),[30],-0.992
same,glycan array binding signal (z-score),[31],-0.157
same,glycan array binding signal (z-score),[32],-0.597
same,glycan array binding signal (z-score),[33],-0.499
same,glycan array binding signal (z-score),[34],-0.442
same,glycan array binding signal (z-score),[35],0.402
same,glycan array binding signal (z-score),[36],0.009
same,glycan array binding signal (z-score),[37],-0.569

# Rewritten with bars between the fields: part of the list above
binder | measurement | setting | value
B1 | glycan array binding signal (z-score) | [22] | -0.044
same | glycan array binding signal (z-score) | [23] | 0.501
same | glycan array binding signal (z-score) | [24] | -0.194
same | glycan array binding signal (z-score) | [25] | 0.323
same | glycan array binding signal (z-score) | [26] | 0.076
same | glycan array binding signal (z-score) | [27] | -0.341
same | glycan array binding signal (z-score) | [28] | 0.426
same | glycan array binding signal (z-score) | [29] | -0.836
same | glycan array binding signal (z-score) | [30] | -0.992
same | glycan array binding signal (z-score) | [31] | -0.157
same | glycan array binding signal (z-score) | [32] | -0.597
